Test results published in patent publication US20060134693A1, “Olfactory cyclic nucleotide-gated channel cell-based assays to identify T1R and T2R taste modulators” (priority 2001, published 2006).
For some of these results: At least one compound was matched to its structure with a doubt left. Some entries share one result that the patent states for a list of compounds. Peptide text beside a SMILES is read from it.

Tests used:
[1] = molecular target: T1, hT1R2/hT1R3 (Homo sapiens, UniProt Q7RTX0+Q8TE23); settings: hT1R2/hT1R3-expressing cells; cited from earlier work
T1 construct: host or cells: human embryonic kidney cells (earlier application U.S. Ser. No. 10/770,127)
T1 sequence (Q8TE23 20-839): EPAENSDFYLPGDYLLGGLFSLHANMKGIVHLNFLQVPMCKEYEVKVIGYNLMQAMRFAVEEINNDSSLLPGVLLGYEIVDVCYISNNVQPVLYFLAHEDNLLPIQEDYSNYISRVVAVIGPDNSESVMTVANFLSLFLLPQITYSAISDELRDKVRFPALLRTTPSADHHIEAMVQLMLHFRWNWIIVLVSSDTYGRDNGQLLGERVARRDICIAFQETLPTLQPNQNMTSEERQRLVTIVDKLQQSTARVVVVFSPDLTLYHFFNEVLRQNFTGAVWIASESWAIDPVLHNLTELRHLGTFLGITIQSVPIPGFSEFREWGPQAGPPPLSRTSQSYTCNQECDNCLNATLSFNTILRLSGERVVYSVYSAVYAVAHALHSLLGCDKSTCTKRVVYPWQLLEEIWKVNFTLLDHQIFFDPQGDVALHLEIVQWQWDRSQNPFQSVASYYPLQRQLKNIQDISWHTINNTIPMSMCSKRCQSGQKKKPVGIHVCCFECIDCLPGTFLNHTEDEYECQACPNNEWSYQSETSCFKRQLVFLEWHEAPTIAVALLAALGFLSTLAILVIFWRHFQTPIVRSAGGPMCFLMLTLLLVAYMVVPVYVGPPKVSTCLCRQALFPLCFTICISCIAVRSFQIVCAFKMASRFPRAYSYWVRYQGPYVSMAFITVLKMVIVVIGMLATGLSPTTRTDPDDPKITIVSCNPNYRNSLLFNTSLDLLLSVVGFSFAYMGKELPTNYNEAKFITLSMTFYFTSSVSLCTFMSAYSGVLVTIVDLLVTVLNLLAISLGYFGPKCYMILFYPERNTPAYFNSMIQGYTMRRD
T1 sequence (Q7RTX0 21-852): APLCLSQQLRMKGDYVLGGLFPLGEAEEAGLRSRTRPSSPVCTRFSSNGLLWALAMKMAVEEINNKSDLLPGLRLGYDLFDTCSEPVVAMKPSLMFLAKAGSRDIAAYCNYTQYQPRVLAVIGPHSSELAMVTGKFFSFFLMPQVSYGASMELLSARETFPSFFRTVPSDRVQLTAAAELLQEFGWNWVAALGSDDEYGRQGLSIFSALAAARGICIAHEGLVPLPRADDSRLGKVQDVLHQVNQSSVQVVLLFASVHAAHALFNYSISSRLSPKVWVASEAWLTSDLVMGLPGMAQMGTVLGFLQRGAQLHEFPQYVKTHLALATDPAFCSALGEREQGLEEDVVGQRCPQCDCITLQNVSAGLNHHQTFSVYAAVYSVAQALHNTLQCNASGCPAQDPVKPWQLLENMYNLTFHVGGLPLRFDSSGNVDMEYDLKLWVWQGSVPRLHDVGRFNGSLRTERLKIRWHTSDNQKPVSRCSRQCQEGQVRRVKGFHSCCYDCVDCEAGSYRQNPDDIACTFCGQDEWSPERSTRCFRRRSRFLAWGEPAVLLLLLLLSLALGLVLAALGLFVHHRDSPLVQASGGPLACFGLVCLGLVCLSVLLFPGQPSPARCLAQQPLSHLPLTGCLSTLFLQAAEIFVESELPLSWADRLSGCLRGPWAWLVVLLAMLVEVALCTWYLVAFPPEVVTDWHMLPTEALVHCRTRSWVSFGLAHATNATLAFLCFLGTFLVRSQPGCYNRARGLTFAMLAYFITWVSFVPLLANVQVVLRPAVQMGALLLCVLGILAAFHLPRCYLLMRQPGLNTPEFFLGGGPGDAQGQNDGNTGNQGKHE

[2] = test system: human olfactory CNG channel; assay: FLIPR fluorescence assay, HEK-293T cells transiently transfected with human olfactory CNG channel subunits; format: cell-based; settings: calcium or membrane potential dye; versus mock-transfected cells
[3] = test system: human olfactory CNG channel; assay: FLIPR calcium assay, HEK-293 cells stably expressing the human olfactory CNG channel; format: cell-based; settings: calcium dye; versus parent cells; FIG. 11
Description: The HEK-293 cells that stably express the human olfactory CNG channel were seeded into FLIPR imaging plates 24 hours prior to the experiment, on plates pre-coated with matrigel. The cells were loaded with a fluorescent calcium dye for one hour, washed and transferred to a FLIPR automated fluorometric plate reader with on-board fluidics. […] Therefore, the cell-based assay is amenable to high throughput applications.

[4] = test system: activity-enhanced human olfactory CNG channel; assay: FLIPR calcium assay, HEK-293 cells stably expressing the activity-enhanced human olfactory CNG channel; format: cell-based; settings: calcium dye; versus parent cells and wild type CNG subunits; FIG. 11
Description: The HEK-293 cells that stably express the activity-enhanced human olfactory CNG channel were seeded into FLIPR imaging plates 24 hours prior to the experiment, on plates pre-coated with matrigel. The cells were loaded with a fluorescent calcium dye for one hour, washed and transferred to a FL]PR automated fluorometric plate reader with on-board fluidics. […] Therefore, the cell-based assay is amenable to high throughput applications, especially with respect to low affinity modulators.

Structure (SMILES)	inhibition of forskolin-induced cAMP accumulation [1]	fluorescence response [2]	fluorescence response [3]	fluorescence response [4]
COC(=O)[C@H](Cc1ccccc1)NC(=O)[C@@H](N)CC(=O)O [Aspartame] (H-Asp-Phe-OMe)	50-70%	–	–	–
C=C[C@@]1(C)CC(=O)[C@]2(O)[C@@]3(C)[C@@H](O)CCC(C)(C)[C@@H]3[C@H](O)[C@H](OC(C)=O)[C@@]2(C)O1 [forskolin]	–	increased fluorescence	increased fluorescence	increased fluorescence
